Consider 1 molecule from paper PMC3084826.

The chains behind the UniProt entries cited, without tags or fusion partners.
UniProt Q08211: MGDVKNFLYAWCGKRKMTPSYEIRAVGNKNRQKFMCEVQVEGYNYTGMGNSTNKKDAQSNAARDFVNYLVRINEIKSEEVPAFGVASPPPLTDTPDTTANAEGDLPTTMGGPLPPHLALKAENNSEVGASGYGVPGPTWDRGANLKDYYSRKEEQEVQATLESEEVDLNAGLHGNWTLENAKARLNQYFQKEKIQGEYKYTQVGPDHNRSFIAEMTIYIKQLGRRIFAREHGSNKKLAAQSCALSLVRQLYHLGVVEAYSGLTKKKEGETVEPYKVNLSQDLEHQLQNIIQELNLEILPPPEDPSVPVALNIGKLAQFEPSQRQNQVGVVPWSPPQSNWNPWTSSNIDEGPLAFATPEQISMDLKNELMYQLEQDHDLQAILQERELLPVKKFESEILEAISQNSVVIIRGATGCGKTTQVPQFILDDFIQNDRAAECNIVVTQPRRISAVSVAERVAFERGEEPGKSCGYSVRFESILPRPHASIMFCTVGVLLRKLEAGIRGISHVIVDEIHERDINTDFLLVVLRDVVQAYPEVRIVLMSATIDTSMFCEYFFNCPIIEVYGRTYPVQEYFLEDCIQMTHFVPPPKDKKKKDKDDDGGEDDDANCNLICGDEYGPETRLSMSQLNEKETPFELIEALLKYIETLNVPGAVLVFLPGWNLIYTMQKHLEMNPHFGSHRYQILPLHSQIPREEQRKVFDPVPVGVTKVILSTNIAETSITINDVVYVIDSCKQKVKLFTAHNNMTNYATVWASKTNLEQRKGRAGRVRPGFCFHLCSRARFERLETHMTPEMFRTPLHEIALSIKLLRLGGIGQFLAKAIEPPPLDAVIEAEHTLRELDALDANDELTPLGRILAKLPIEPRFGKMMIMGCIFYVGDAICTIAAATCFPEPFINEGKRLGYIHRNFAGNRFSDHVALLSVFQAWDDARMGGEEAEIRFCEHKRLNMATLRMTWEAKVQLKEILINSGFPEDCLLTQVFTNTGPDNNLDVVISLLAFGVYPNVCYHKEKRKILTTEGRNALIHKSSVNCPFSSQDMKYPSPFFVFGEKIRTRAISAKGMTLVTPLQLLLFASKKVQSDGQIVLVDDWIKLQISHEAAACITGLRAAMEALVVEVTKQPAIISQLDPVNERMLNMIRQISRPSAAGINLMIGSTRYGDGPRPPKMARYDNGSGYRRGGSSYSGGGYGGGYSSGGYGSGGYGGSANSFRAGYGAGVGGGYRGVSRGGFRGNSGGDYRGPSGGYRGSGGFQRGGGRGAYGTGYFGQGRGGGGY

No constants are given. Whether binding was seen depends on the method and setting. In cells and extracts the contact can be indirect. Some binding calls cover weakened binding; strength is not graded here.

The experiment deals with RNA Helicase A (human (endogenous in VCaP)) (UniProt Q08211). Nature of the experiment: co-IP; VCaP cells, with or without 10 µM YK-4-279 for 24 h; immunoprecipitation as previously described (ref. 11); which protein was precipitated is not told.

B1: ERG (protein, UniProt P11308 1-479)
chain: MASTIKEALSVVSEDQSLFECAYGTPHLAKTEMTASSSSDYGQTSKMSPRVPQQDWLSQPPARVTIKMECNPSQVNGSRNSPDECSVAKGGKMVGSPDTVGMNYGSYMEEKHMPPPNMTTNERRVIVPADPTLWSTDHVRQWLEWAVKEYGLPDVNILLFQNIDGKELCKMTKDDFQRLTPSYNADILLSHLHYLRETPLPHLTSDDVDKALQNSPRLMHARNTGGAAFIFPNTSVYPEATQRITTRPDLPYEPPRRSAWTGHGHPTPQSKAAQPSPSTVPKTEDQRPQLDPYQILGPTSSRLANPGSGQIQLWQFLLELLSDSSNSSCITWEGTNGEFKMTDPDEVARRWGERKSKPNMNYDKLSRALRYYYDKNIMTKVHGKRYAYKFDFHGIAQALQPHPPESSLYKYPSDLPYMGSYHAHPQKMNFVAPHPPALPVTSSSFFAAPNPYWNSPTGGIYPNTRLPTSHMPSHLGTYY
For B1, the binding entry was “binds”.
